The target in this assay is prohibitin-2 (mouse (endogenous in MEF)) (UniProt O35129). Nature of the assay: cryo-EM structure.

Amino acid sequences for entries named in this document (tags omitted).
UniProt O35129: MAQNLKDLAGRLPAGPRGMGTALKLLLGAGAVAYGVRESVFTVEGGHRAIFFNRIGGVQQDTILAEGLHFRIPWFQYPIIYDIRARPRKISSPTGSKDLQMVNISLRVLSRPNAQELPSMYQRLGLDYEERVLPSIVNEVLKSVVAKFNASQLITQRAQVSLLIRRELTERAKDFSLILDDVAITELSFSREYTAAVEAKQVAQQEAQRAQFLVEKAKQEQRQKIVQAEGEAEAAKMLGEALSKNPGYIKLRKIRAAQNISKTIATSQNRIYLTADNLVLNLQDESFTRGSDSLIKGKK

Results are given in words; binding and its absence hold for the method and conditions named. Some binding calls cover weakened binding; strength is not graded here.

The results in this text go back to paper doi:10.1101/2025.11.14.688579.

B1: prohibitin-1 (protein, UniProt P67778 1-272)
chain: MAAKVFESIGKFGLALAVAGGVVNSALYNVDAGHRAVIFDRFRGVQDIVVGEGTHFLIPWVQKPIIFDCRSRPRNVPVITGSKDLQNVNITLRILFRPVASQLPRIYTSIGEDYDERVLPSITTEILKSVVARFDAGELITQRELVSRQVSDDLTERAATFGLILDDVSLTHLTFGKEFTEAVEAKQVAQQEAERARFVVEKAEQQKKAAIISAEGDSKAAELIANSLATAGDGLIELRKLEAAEDIAYQLSRSRNITYLPAGQSVLLQLPQ
In the case of B1, the binding entry is “binds”.
